## Screening data, single-dose tests

Amino acid sequences for entries named in this document (tags omitted). Residues count along the entry.
UniProt I6X8D2, whole entry: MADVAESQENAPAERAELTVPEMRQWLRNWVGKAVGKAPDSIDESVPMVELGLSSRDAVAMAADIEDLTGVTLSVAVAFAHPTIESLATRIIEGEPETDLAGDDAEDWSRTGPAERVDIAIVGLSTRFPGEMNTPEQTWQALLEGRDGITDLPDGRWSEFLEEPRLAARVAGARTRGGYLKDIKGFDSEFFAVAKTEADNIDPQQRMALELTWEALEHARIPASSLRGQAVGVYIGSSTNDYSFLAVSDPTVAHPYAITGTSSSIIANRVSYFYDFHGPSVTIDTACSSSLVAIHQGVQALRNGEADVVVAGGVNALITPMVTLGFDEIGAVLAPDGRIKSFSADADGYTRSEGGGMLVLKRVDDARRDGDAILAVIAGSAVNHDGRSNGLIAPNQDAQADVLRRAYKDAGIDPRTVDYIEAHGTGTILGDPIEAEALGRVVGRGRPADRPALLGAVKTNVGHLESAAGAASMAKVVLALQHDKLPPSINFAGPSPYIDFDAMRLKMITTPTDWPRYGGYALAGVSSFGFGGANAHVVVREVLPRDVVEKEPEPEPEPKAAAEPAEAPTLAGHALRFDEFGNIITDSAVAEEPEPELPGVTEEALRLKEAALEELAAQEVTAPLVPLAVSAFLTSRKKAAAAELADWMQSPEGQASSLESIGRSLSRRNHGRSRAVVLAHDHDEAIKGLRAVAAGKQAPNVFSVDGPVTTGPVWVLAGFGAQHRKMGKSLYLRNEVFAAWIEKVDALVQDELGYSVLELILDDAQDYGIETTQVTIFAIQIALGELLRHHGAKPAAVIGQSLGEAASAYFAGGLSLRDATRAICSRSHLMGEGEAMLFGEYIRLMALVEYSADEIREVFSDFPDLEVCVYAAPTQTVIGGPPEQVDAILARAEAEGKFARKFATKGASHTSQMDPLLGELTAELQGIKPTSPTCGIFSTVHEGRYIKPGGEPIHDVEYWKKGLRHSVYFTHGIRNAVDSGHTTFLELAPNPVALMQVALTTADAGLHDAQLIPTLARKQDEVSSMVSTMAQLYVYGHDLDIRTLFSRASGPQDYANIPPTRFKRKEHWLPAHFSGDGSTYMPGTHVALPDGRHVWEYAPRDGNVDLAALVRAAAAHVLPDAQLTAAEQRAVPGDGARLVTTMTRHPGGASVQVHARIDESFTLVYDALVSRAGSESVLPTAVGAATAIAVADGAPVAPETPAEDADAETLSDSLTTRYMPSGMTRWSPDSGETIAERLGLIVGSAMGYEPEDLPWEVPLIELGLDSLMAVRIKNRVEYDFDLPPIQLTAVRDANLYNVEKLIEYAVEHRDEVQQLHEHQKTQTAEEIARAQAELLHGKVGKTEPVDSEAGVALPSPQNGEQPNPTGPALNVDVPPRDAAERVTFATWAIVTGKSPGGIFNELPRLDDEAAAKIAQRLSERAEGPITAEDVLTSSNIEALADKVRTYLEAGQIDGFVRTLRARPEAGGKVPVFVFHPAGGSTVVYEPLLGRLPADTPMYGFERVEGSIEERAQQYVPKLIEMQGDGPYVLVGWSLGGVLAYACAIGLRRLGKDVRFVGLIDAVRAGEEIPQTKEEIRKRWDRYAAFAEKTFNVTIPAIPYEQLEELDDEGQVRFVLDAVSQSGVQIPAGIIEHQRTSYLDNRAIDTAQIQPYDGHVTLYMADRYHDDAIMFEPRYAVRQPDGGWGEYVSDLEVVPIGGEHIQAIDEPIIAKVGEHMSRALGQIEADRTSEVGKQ
UniProt Q4DA54, 1-478: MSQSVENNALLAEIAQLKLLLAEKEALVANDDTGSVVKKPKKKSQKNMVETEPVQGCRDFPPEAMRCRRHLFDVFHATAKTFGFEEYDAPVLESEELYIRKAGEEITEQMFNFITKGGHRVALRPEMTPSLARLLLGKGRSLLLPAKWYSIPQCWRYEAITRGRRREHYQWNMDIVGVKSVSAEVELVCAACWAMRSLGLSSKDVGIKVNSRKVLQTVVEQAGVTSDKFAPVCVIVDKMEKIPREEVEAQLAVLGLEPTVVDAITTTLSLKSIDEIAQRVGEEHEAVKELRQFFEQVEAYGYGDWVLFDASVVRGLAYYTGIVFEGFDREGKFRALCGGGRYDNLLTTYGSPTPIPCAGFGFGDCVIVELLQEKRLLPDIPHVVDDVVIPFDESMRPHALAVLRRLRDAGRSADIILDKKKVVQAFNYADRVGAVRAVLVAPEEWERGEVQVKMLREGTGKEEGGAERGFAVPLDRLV
UniProt P9WPC5, whole entry: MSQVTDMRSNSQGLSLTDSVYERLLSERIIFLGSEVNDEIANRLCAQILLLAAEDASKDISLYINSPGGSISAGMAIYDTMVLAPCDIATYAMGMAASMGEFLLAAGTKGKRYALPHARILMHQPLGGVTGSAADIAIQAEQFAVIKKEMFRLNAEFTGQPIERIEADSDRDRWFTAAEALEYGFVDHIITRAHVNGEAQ
UniProt P9WPC3, whole entry partner: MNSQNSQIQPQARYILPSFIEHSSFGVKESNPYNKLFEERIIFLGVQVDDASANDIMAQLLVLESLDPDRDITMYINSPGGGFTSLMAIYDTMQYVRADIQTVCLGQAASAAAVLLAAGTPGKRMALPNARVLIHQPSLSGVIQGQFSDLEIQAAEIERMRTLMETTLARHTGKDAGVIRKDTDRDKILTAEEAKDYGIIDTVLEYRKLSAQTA
UniProt A4I591, 1-473: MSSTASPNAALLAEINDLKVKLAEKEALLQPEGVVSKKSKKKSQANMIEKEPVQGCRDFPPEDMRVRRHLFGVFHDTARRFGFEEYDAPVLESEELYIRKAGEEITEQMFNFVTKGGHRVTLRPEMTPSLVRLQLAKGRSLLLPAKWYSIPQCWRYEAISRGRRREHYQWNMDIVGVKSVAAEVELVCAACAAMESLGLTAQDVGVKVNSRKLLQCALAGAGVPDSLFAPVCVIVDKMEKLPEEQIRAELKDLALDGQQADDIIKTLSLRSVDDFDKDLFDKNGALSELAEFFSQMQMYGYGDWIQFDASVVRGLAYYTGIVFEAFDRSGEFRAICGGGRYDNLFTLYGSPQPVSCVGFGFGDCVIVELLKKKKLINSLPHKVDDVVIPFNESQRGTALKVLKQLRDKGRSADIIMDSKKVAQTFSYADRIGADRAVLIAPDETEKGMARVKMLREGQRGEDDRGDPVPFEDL

Source: ChEMBL document CHEMBL3988442, “University of Dundee, Small-Polar-MMV Screening Library” (2021).

Pks13 thioesterase: 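Polyketide synthase Pks13, Mycobacterium tuberculosis (UniProt I6X8D2). Enzyme assay of the thioesterase domain of polyketide synthase 13; the read-out is not stated. Compounds at 30 µM. Higher reads as stronger inhibition (inferred from which compounds were picked for retests). About 67,000 compounds were tested under these conditions; 0.46% (about 300) showed 50% or more at least once.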
TcHisRS: 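Histidine-tRNA ligase, Trypanosoma cruzi CL Brener (UniProt Q4DA54). Enzyme assay of histidyl-tRNA synthetase; the read-out is not stated. Tested at 30 µM. The record gives no direction; compounds that gave an IC50 in retests scored well above the rest, so higher reads as stronger inhibition. Of about 69,000 compounds tested this way, about 31 (0.045%) reached 50% or more in at least one test.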
ClpP1P2: 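ClpP1P2, Mycobacterium tuberculosis (UniProt P9WPC5 and UniProt P9WPC3). Protease assay of ClpP1P2, read by the AMC dye that it sets free. Concentration: 50 µM. Direction is inferred from only a few compounds that gave an IC50; most scored high, so higher reads as stronger inhibition. Most other retested compounds had strongly negative values. Of about 69,000 compounds tested this way, about 10 (0.015%) reached 50% or more in at least one test.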
Leishmania in macrophages: 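Cell assay of Leishmania donovani living inside macrophages; the read-out is not stated. Compounds at 30 µM. Higher reads as stronger inhibition (inferred: compounds with an IC50 in retests scored well above the rest). Size under these conditions: about 69,000 compounds, about 1,000 of them at 50% or above in at least one test.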
LiHisRS: 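Enzyme assay of histidyl-tRNA synthetase; the read-out is not stated. Target: Histidine-tRNA ligase, Leishmania infantum (UniProt A4I591). Tested at 30 µM. Higher reads as stronger inhibition (inferred: compounds with an IC50 in retests scored well above the rest). The assay is labelled LdHisRS but filed under L. infantum. Size under these conditions: about 69,000 compounds, about 410 of them at 50% or above in at least one test.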

Results are given as percent effect.
The controls that fix the scale are not given in the record; negative values are as filed.
Compounds were drawn at random from those tested, without regard to their results.
Two or more numbers in one place are separate tests of the same structure; such repeats can differ widely.
A dash means the value is not listed here; it may have been measured.

| compound | Pks13 thioesterase | TcHisRS | ClpP1P2 | Leishmania in macrophages | LiHisRS |
|---|---|---|---|---|---|
| `Cn1cc(CN2CC[C@@H]3[C@H]2CCC(=O)N3c2ccccc2)cn1` | -13.14 | 1.905 | -16.51 | - | 5.556 |
| `O=C(NCC(F)(F)F)C1CSCN1S(=O)(=O)c1ccc(F)cc1Cl` (stereo not drawn) | -21.95 | 10.14 | 3.607 | 11.36 | 18.26 |
| `N#Cc1cccc(CN2CC[C@@H]3CN(c4ncccn4)CCO[C@@H]3C2)c1` | -57.5 | 0 | -5.568 | - | -0.9009 |
| `Cc1ccccc1-c1cncc(C2CCN(C(C)C)CC2)n1` | 3.227 | 1.075 | 4.156 | 29.79 | 11.43 |
| `[H][C@@]12C[C@H](NC(=O)c3nc4ccccc4[nH]3)CN1CCN(C)C2` | - | - | - | 11.33 | - |
| `Cc1cc(N(C)C)nc(C2(C)CCNCC2)n1` | -8.494 | 0 | -5.731 | 12.27 | -1.408 |
| `CC(=O)N1CCCN(C(=O)NCc2ccc(-c3ccn[nH]3)cc2)CC1` | -4.033 | 4.046 | -38.7 | 25.05 | 15.18 |
| `CC(=O)Nc1nc(C(=O)N2CCCC2c2noc(C)n2)cs1` (stereo not drawn) | -16.14 | 1.527 | -7.561 | -39.72 | -5.479 |
| `CCC1CCCCCN1C(=O)c1ccc(N2CCC(O)CC2)cc1` (stereo not drawn) | -17.49 | 14 | -5.264 | 32.16 | 30.61 |
| `Cn1cnnc1C1CCCN(C(=O)c2ccc3c(c2)OCCCO3)C1` (stereo not drawn) | -21.93 | 0.3774 | 18.35 | 14.62 | 16 |
| `CCC(C)NS(=O)(=O)Cc1cccc(NC(=O)c2ccc[nH]2)c1` (stereo not drawn) | -13.65 | 0 | -4.561 | -80.22 | 13.7 |
| `CN(CC(=O)N(C)C1CCCCC1)Cc1nc2c(cnn2C)c(=O)[nH]1` | 3.097 | -2.809 | -15.49 | 10.58 | 10.26 |
| `COc1ccc2nnc(CCCC(=O)NCc3ccccc3OC)n2n1` | -5.472 | -1.98 | -3.621 | -10.21 | 7.609 |
| `CC[C@H]1CN(S(=O)(=O)c2ccccc2)CC[C@H]1CC(=O)O` | -21.71 | 12.87 | 4.265 | 2.425 | 22.22 |
| `O=C(CCCc1ccccn1)N1CCCC(n2cccn2)C1` (stereo not drawn) | -14.57 | 7.101 | -14.9 | 28.65 | 19.64 |
| `Cc1nc(CSCCC(=O)NCCNC(=O)OC(C)(C)C)cs1` | 0.004502 | 5.946 | -4.295 | 17.86 | -13.7 |
| `O=C(c1cnccn1)N1CCN(Cc2cccnc2)c2ncccc2C1` | -16.1 | 9.524 | -15.64 | 15.22 | 4.167 |
| `Cc1cccc(-c2ccc(C(=O)NCCN(C)C3CC3)c(=O)[nH]2)c1` | -29.95 | 3.759 | -2.852 | -7.061 | 9.524 |
| `CC(NCc1cnc(N2CCOCC2)nc1)c1ccc(Cl)s1` (stereo not drawn) | -25.39 | 1.786 | 2.556 | - | 17.7 |
| `CCc1nnc(CN2CCCCC2Cn2nc(C)nc2C)o1` (stereo not drawn) | -21.62 | 6.897 | 16.03 | 12.63 | 13.91 |
| `O=C(c1ccco1)N1C[C@H]2CCCN(CC3CCOCC3)[C@H]2C1` | 0.0598 | 7.104 | -7.372 | - | 15.69 |
| `Cc1ccc(CN2Cc3nnn(C)c3C(COCCN(C)C)C2)s1` (stereo not drawn) | -7.948 | 6.78 | -4.473 | - | 13.21 |
| `Cc1nnc(Cn2cc(I)cc(C)c2=O)o1` | -37.16 | 3.665 | -4.255 | 16.87 | 18.97 |
| `[H][C@]12CN(Cc3ccccc3Cl)C[C@]1([H])N(CCOC)C(=O)CO2` | - | - | - | -5.523 and 5.945 | - |
| `CN1CCc2nc(C3CCCN(S(=O)(=O)c4ccccc4)C3)ncc2C1` (stereo not drawn) | 2.212 | 8.475 | -9.121 | -3.558 | 29.37 |
| `CN(C)CC1CSCCCN1C(=O)c1ccc(C(C)(C)C)cc1` (stereo not drawn) | -14.03 | 4.348 | -20.7 | 7.168 | 16.5 |
| `COc1nc2cc(C)ccc2cc1CN(C)Cc1cc(C)[nH]n1.O=C(O)CC(O)(CC(=O)O)C(=O)O` | - | - | - | 45.22 | - |
| `CC(NC(=O)C1CN(c2ncnc3c2nnn3C)C1)c1ccccc1` (stereo not drawn) | -3.815 | 8.173 | -4.372 | -22.7 | 17.07 |
| `CC(C)n1c(C2CCCN(CC(=O)NC(N)=O)C2)nc2ccccc21` (stereo not drawn) | 9.354 | 2.174 | 2.689 | -15.38 | 9.091 |
| `CN(C(=O)NC1CC1)C1CCN(c2ccc(Cl)cc2)CC1` | 6.937 | 12.12 | 7.181 | 29.62 | 15.96 |
| `CCCn1cnnc1CNC1CSCCSC1` | -13.94 | -1.064 | 2.743 | 3.091 | 16.42 |
| `CCCn1nnnc1COc1cc(OC)ccc1C(N)=O` | -0.629 | 11.06 | -3.013 | 28.25 | 17.07 |
| `[H][C@]12CCCCN1CCC[C@H]2CNC(=O)Cn1ccc2cc(C)ccc21` | - | - | - | 26.96 | - |
| `O=C(Nc1ccccc1)C1CN(CC2CCOCC2)CC12CCOCC2.O=C(O)C(F)(F)F` (stereo not drawn) | - | - | - | 6.071 | - |
| `CC(C)(C)c1noc(-c2ccnc(-n3cnc(C(=O)O)c3)c2)n1` | -2.991 | 5.155 | 13.77 | -11.51 | 5.495 |
| `Cc1cc(C)n(CCCNC(=O)NCc2c(C)cc(C)[nH]c2=O)n1` | 21.12 | -33.33 | 9.084 | 13.39 | 15.32 |
| `CC(C)CN1CCC(NC(=O)NCCC(=O)NCc2ccccc2)CC1` | -23.79 | 9.091 | 8.463 | 16.03 | 19.05 |
| `Fc1cnc(N2CCO[C@H]3CN(CC4CCC4)C[C@H]32)nc1` | -12.08 | -0.5405 | 15.28 | - | 15.09 |
| `Cc1sc2c(C3CCCNC3)nc(Nc3cccc(F)c3)n2c1C.Cl` (stereo not drawn) | - | - | - | 8.436 | - |
| `O=C(Nc1cccc(N2CCN(CC3CC3)CC2)c1)C1CCCO1` (stereo not drawn) | -14.82 | 9.524 | 0.8355 | 25.21 | -3.03 |
| `O=C(O)C(F)(F)F.O=C(O)C(F)(F)F.[H][C@@]12COC[C@]1(COCc1cccc(C)n1)CN(c1cc(OC)ncn1)C2` | - | - | - | 41.02 | - |
| `Cc1noc([C@H]2C[C@H]3OCC[C@H]3N(Cc3ccc(F)cc3)C2)n1` | -2.746 | 1.97 | -7.328 | - | 8.824 |
| `O=C1CCc2cc(-c3csc(CCN4CCCC4=O)n3)ccc2N1` | -5.469 | 6.87 | 5.147 | 36.04 | 41.1 |
| `CCC(CC)c1cc(CNC(=O)N2CCCC(N(C)C)C2)on1` (stereo not drawn) | -25.24 | -1.695 | 7.752 | 5.067 | 16.98 |
| `Cc1ncc(CN2CCC3(CC2)CC(=O)N(C)C3)cn1` | - | 11.11 | 1.516 | -0.165 | 7.692 |
| `CNC(=O)CN1CCC(CN(C)CCSc2ccccc2)CC1` | 3.133 | 14 | 28.51 | 14.38 | 12.24 |
| `CCn1nc(CC(C)C)cc1C(=O)NCCCOC` | -11.2 | 0 | 11 | 6.111 | 16.35 |
| `c1cnn(Cc2nnc3n2CCCN(CC2CCOCC2)C3)c1` | -7.15 | 1.639 | -4.255 | - | 5.882 |
| `O=C(O)C(F)(F)F.[H][C@@]12CCN(c3cccnc3)C[C@]1([H])CN(C(=O)c1ccc(C)nc1)C2` | - | - | - | 36.88 | - |
| `CN(CCN1CCOCC1)C(=O)CCc1ccc(C(F)(F)F)cc1` | 3.081 | 5 | -1.773 | -10.03 | 18.87 |
| `CCC(=O)NCCCn1c(-c2cccnc2C)cc2cccnc21.Cl` | - | - | - | 8.525 | - |
| `COc1cccc(CN2C[C@@H]3CC[C@@](O)(c4ccccn4)[C@@H]3C2)c1OC` | -15.25 | -1.111 | 6.294 | - | 0 |
| `O[C@H]1[C@H](NCCc2cnccn2)c2ccccc2C12CCNCC2` | -29.28 | 14.29 | -10.24 | -11.86 | 15.56 |
| `Cc1c[nH]c(CN2CC[C@@]3(O)CCN(C(=O)C4CCCC4)C[C@H]3C2)n1` | 8.251 | 8.374 | 2.291 | - | 11.84 |
| `[H][C@]12CCN(S(=O)(=O)c3ccc(C)cc3)[C@@]1([H])[C@@H](NC(=O)c1[nH]ncc1Br)C2` | - | - | - | 17.7 | - |

Once more, the final 6:

compound,Pks13 thioesterase,TcHisRS,ClpP1P2,Leishmania in macrophages,LiHisRS
CN(CCN1CCOCC1)C(=O)CCc1ccc(C(F)(F)F)cc1,3.081,5,-1.773,-10.03,18.87
CCC(=O)NCCCn1c(-c2cccnc2C)cc2cccnc21.Cl,-,-,-,8.525,-
COc1cccc(CN2C[C@@H]3CC[C@@](O)(c4ccccn4)[C@@H]3C2)c1OC,-15.25,-1.111,6.294,-,0
O[C@H]1[C@H](NCCc2cnccn2)c2ccccc2C12CCNCC2,-29.28,14.29,-10.24,-11.86,15.56
Cc1c[nH]c(CN2CC[C@@]3(O)CCN(C(=O)C4CCCC4)C[C@H]3C2)n1,8.251,8.374,2.291,-,11.84
[H][C@]12CCN(S(=O)(=O)c3ccc(C)cc3)[C@@]1([H])[C@@H](NC(=O)c1[nH]ncc1Br)C2,-,-,-,17.7,-